The other results are listed elsewhere or left out.

The test system of the assay is T1, CTL2-GFP (C. trachomatis L2/434/Bu, GFP-expressing).
T1 construct: L2/434/Bu, GFP-expressing
Further details: species or system HeLa; Intracellular C. trachomatis growth in HeLa cells, bulk GFP fluorescence relative to DMSO. The following applies: bulk GFP, single well; 28.5 h, 10 µM; inhibitor.
Consider `CN1CCN(S(=O)(=O)c2ccc(NC(=O)Cc3ccc([N+](=O)[O-])cc3)cc2)CC1` [CBK268161], for which the “% of control remaining” value was found to be 90.4768%. The figure for `Cc1cc(NCC2CCCO2)n2ncc(-c3ccccc3)c2n1` (centres unmarked) [CBK304530] is 120.322%. The value for `CN(C(=O)NC1CCN(Cc2cccc(O)c2)CC1)C1CCS(=O)(=O)C1` (centres unmarked) [CBK306538] was 128.206%; that for `COc1ccccc1N1CCN(C(=O)C2CC2C)CC1` (centres unmarked) [CBK091496] was 178.56%; that for `COc1ccc(C(CC(=O)O)NC(=O)c2ccc(Cl)cc2Cl)cc1` (centres unmarked) [CBK269131] was 139.566%. The value for `O=C(Cn1cnc2ccccc2c1=O)Nc1cccc(-c2cnc3ccccc3n2)c1` [CBK270020] was 162.545%. Turning to `Cc1ccc(S(=O)(=O)Nc2ccc(Nc3nc(-c4ccccc4)cn4ccnc34)cc2)cc1` [CBK037303], the “% of control remaining” value was 162.174%. On to `CCCCn1nc(Cn2cncn2)nc1CC1NC(=O)c2ccccc21` (centres unmarked) [CBK307395], for which the “% of control remaining” value amounted to 85.3161%. The value for `CN(Cc1ccccc1)S(=O)(=O)c1ccccc1[N+](=O)[O-]` [CBK261458] was 100%. As for `Fc1ccc(C2CCc3n[nH]cc3C2)cc1` (centres unmarked) [CBK015957C], the “% of control remaining” value is recorded as 160.84%.

Turning to `Cc1ccc(Cn2ncc3c(C(=O)N4CCC(N(C)S(C)(=O)=O)CC4)cc(C)nc32)cc1` [CBK298280], the “% of control remaining” value worked out at 106.471%.

Regarding `O=C(COc1ccccc1Cl)Nc1nnc[nH]1` [CBK287946], the “% of control remaining” value is recorded as 139.981%.

For `O=[N+]([O-])c1ccc(/C=N/Nc2nnc3c(n2)[nH]c2ccccc23)cc1` [CBK261486], the “% of control remaining” value is 106.262%. The figure for `O=C(Nc1ccnn1Cc1cc(Br)cs1)c1ccc2ncsc2c1` [CBK296713] is 122.103%.

Regarding `O=c1cc(-c2cccc([N+](=O)[O-])c2)c2ccc(OCc3cc4c(cc3Cl)OCO4)cc2o1` [CBK265652], the “% of control remaining” value amounted to 95.2823%. The figure for `O=C(c1ccc(Br)o1)N1CCc2ccc(S(=O)(=O)N3CCOCC3)cc21` [CBK028953] is 98.506%.

`NC(=O)CN1CCCC2(CCCCc3ccccc3OCC(=O)NC2)C1` (centres unmarked) [CBK292058]: the “% of control remaining” value was 99.7143%. The figure for `c1cncc(-c2nnc(SCc3nc4ccccc4[nH]3)o2)c1` [CBK264543] is 118.694%.

As for `CN(C)CCN1CCN(c2nc(-c3cccnc3)cnc2N)CC1` [CBK063503], the “% of control remaining” value amounted to 133.389%. The figure for `Cc1cnc2[nH]c(C(F)(F)F)c(CN3CCSCC3)c2c1` [CBK284767] is 159.072%. Regarding `O=C(CN1CCCCC1CN1CCOCC1)NCc1ccccn1` (centres unmarked) [CBK304375], the “% of control remaining” value was 85.5307%. With `NC1CCN(c2ncccn2)CC1` [CBK174054], the “% of control remaining” value was 91.6488%. As for `O=C(NC1CC1)[C@@H]1C=CCN1C(=O)Nc1ccccc1C(F)(F)F` [CBK284276], the “% of control remaining” value turned out to be 77.9904%. With `Nc1ncc(-c2cccc(O)c2)nc1N1CCOCC1` [CBK063376], the “% of control remaining” value came to 113.034%.

As to `c1csc(N2CCN(c3nccn4cnnc34)CC2)n1` [CBK305185], the “% of control remaining” value came to 104.425%.

As to `COc1ccc(C(=O)NCc2ccccc2)c(OC)n1` [CBK200190], the “% of control remaining” value worked out at 104.575%. The figure for `Cc1ocnc1C(=O)Nc1nc2c(cc1C#N)CCC2` [CBK306365] is 82.4454%; for `CCOC(=O)Cn1ccc2ccnc(-c3cccc(OC)c3)c21` [CBK284707] it is 81.4295%; for `Cc1[nH]nc(Nc2ccc(C(=O)O)cc2)c1[N+](=O)[O-]` [CBK262726] it is 125.172%. Turning to `COC(=O)c1cc(CN2CCCN(S(=O)(=O)c3ccc(-n4cnc(Cl)c4Cl)cc3)CC2)cn1C` [CBK063080], the “% of control remaining” value is reported as 110.685%. Turning to `COCCn1cnnc1C(C)NC(=O)N(C)Cc1nc2ccccc2s1` (centres unmarked) [CBK307427], the “% of control remaining” value was 136.228%.

On to `Cc1nn(CC(=O)NC2CCC2)c(=O)c2cc3sccc3n12` [CBK284110], for which the “% of control remaining” value is 96.1693%. The figure for `CC(C)CNc1nc2c(ncn2[C@H]2C[C@@H](O)[C@@H](CO)O2)c(=O)[nH]1` [CBK201198] is 148.321%; for `N#Cc1ccc(COc2cccc(C(F)(F)F)c2)cc1` [CBK002811] it is 72.6873%.

Turning to `CC(C)CNC(=O)N(CCc1ccccc1)Cc1ccccc1` [CBK155339], the “% of control remaining” value came out at 108.16%.

`O=C(O)CCc1ccc(-c2ccc(Br)cc2)n1-c1ccccc1O` [CBK131892]: the “% of control remaining” value is reported as 96.5833%.

For the compound `Fc1ccc([C@@H]2CN(Cc3ccccn3)C[C@H]2c2cc[nH]n2)cc1` [CBK285416], the “% of control remaining” value is listed as 89.4666%. The figure for `CCOc1ccc(-c2csc(NC(=O)c3cccnc3)n2)cc1` [CBK094747] is 110.981%; for `Cc1cc(Nc2ccccc2C)c2cc(C(=O)O)ccc2n1` [CBK269458C] it is 73.726%; for `COc1ccc(NC(=O)c2cc([N+](=O)[O-])ccc2N2CCN(C)CC2)cc1` [CBK263017] it is 119.253%. The value for `CNC(=O)c1ccc(-c2cccc(COC)c2)nc1NCC1CC1` [CBK106322] was 196.4%; that for `O=C(CCS(=O)(=O)c1ccccc1)N(Cc1cccnc1)c1nc2c(F)cccc2s1` [CBK294422] was 154.201%. The value for `CC1CCCC(C)N1C(=O)Cn1cnc2c(Cl)cc(Cl)cc2c1=O` (centres unmarked) [CBK306222] was 139.669%; that for `CCCNC(=O)CN(C)Cc1cn2cccc(C)c2n1` [CBK304800] was 113.596%; that for `CCC(=O)N[C@H]1CC[C@]2(CC1)CNC(=O)c1ccccc1O2` [CBK281681] was 76.6483%. Regarding `Cc1ccc2cc(C3CC(c4ccccc4)=NN3C(=O)CCC(=O)O)c(=O)[nH]c2c1` (centres unmarked) [CBK296127], the “% of control remaining” value is on record as 103.293%. For `CC(C)NC(=O)N[C@H]1CC[C@]2(CC1)CC(=O)c1ccccc1O2` [CBK283389], the “% of control remaining” value is 83.2171%. The figure for `COc1cccc(CN2CCN(Cc3ccco3)[C@@H](C)C2)c1` [CBK284265] is 125.327%; for `Cc1ccc(-n2nnnc2SCC(=O)O)cc1` [CBK287048] it is 133.849%. The value for `Clc1ccc(COc2nccnc2N2CCN(CCOc3ccccc3)CC2)cc1Cl` [CBK083091T] was 87.6871%. The value for `O=S(=O)(c1ccc(Br)cc1F)N1CCCCC1CO` (centres unmarked) [CBK051302] was 115.253%; that for `CC(=O)c1ccc(C)cc1OC(=O)C1CCCN(S(C)(=O)=O)C1` (centres unmarked) [CBK306140] was 103.574%; that for `CCOC(=O)c1cnn(C2CCCN(c3cccc(C#N)n3)C2)c1` (centres unmarked) [CBK306430] was 142.604%. With `CC(Oc1ccc(Br)cc1)C(=O)Nc1nc2c(s1)CCC2` (centres unmarked) [CBK296723], the “% of control remaining” value is on record as 120.509%. The value for `COC1C(O)C(CO)OC1n1cnc2cnc(N)nc21` (centres unmarked) [CBK201290] was 124.002%; that for `O=C(Nc1ccc(Cn2cncn2)cc1)C1CC2C=CC1C21CC1` (centres unmarked) [CBK281399] was 130.558%.

Turning to `O=C1CCCN1CCCNc1nccnc1-c1ccncc1` [CBK036832], the “% of control remaining” value is given as 142.665%.

In the case of `CC(C)CNc1nc(-c2cccc(O)c2)cnc1N` [CBK063862], the “% of control remaining” value stood at 145.123%.

With `COc1ccc(/C=C(\C#N)c2nc3ccccc3n2Cc2c(C)ccc3ccccc23)cc1` [CBK262960], the “% of control remaining” value is listed as 101.308%. The value for `C/C(CC(=O)Nc1ccc(C)cc1)=N\NC(=O)c1cccc(O)c1` [CBK262618] was 82.2174%; that for `CCOC(=O)c1[nH]c2ccccc2c1NS(=O)(=O)Cc1ccccc1[N+](=O)[O-]` [CBK047426] was 131.899%; that for `O=C(NCc1ccccc1)[C@H]1CN2CCC1C[C@@H]2Cn1cc(-c2ccc(F)cc2)nn1` (some centres unmarked) [CBK288736] was 121.966%. The figure for `O=C(CSc1ccccn1)Nc1ccc(CN2CCOCC2)cc1` [CBK306072] is 131.781%; for `COc1ccc(C(NC(=O)C2CCN(Cc3ccc(OC)c(OC)c3)CC2)c2ccccc2C)cn1` (centres unmarked) [CBK081452T] it is 124.789%.

On to `COCCOc1ncccc1OCc1ccccc1` [CBK001456], for which the “% of control remaining” value worked out at 107.853%. The figure for `CC(C)(C)OC(=O)N1CCC(NCCc2ccccn2)C1` (centres unmarked) [CBK304839] is 101.965%; for `O=C(COc1ccc(Cl)cc1Cl)OCCNC1=NS(=O)(=O)c2ccccc21` [CBK264905] it is 114.489%. The figure for `CCCn1cc(CN2C3CCC2CC(O)(c2ccccc2F)C3)cn1` (centres unmarked) [CBK282664] is 139.375%; for `O=c1[nH]cccc1-c1noc(-c2cnccn2)n1` [CBK288538] it is 108.487%; for `Oc1c(C(c2ccccc2)N2CCc3ccccc3C2)sc2ncnn12` (centres unmarked) [CBK287612] it is 113.918%.

Turning to `OCc1ccc(OCCCOc2cccc3cccnc23)cc1` [CBK269674], the “% of control remaining” value is 113.698%. Consider `O=C1CC(NCc2ccccc2)C(=O)N1c1ccc(N2C(=O)CC(NCc3ccccc3)C2=O)cc1` (centres unmarked) [CBK263963], for which the “% of control remaining” value is recorded as 100%. The figure for `CCOc1ccc(S(=O)(=O)N2CCSC2c2ccc(OC)c([N+](=O)[O-])c2)cc1` (centres unmarked) [CBK263293] is 80.4167%; for `COc1cc2c(cc1OC)CN(Cc1cc(=O)[nH]c(=O)[nH]1)CC2` [CBK126393] it is 100%; for `O=C(CCn1cnc2ccccc2c1=O)Nc1cccc(C(F)(F)F)c1` [CBK267687] it is 125.598%.

As to `CSc1ncc(Cl)c(C(=O)Nc2sc3c(c2C(=O)NCC2CCCO2)CCC3)n1` (centres unmarked) [CBK268959], the “% of control remaining” value came out at 121.019%. The figure for `CCc1nnc(NS(=O)(=O)c2ccc(NC(=O)c3ccc([N+](=O)[O-])cc3)cc2)s1` [CBK045483] is 90.4179%. The value for `O=C(CCCOc1ccccc1)N1CCN(c2cccc(Cl)c2)CC1` [CBK304354] was 108.722%. The figure for `COc1ccccc1C(=O)NC1CN2CCC1CC2` (centres unmarked) [CBK018475C] is 112.713%. For `Cn1cc(-c2nc(C(=O)NCC3CCN(c4ccccc4)C3)cs2)cn1` (centres unmarked) [CBK305633], the “% of control remaining” value was 121.671%.

The record behind these values is paper PMC12040169 (PLOS Biology, 2025).
